Some of the results follow.
Compound: CC1Cc2ccccc2N1C(=O)C1CCCN(C1)C(=O)CCl (mixture of isomers) [TRIM25 ligand 11 (diastereomer mixture)]
Assay: probe-labelled cysteine peptide fold change vs DMSO (competition) (log2 fold change); higher = less target engagement (more negative = stronger competition)
Details: THP-1, incubation time: 4 h
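Further: competitive chemoproteomic profiling in live THP-1 cells with an iodoacetamide desthiobiotin (IA-DTB) probe, comparing probe-labelled peptide intensities in compound-treated cells against DMSO-treated controls.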

Protein sequences, listed by entry. Tags and fused reporters are not part of them. Lines headed by an entry give the natural chain unless they say otherwise; changes in a name come on top.
UniProt Q6PL18: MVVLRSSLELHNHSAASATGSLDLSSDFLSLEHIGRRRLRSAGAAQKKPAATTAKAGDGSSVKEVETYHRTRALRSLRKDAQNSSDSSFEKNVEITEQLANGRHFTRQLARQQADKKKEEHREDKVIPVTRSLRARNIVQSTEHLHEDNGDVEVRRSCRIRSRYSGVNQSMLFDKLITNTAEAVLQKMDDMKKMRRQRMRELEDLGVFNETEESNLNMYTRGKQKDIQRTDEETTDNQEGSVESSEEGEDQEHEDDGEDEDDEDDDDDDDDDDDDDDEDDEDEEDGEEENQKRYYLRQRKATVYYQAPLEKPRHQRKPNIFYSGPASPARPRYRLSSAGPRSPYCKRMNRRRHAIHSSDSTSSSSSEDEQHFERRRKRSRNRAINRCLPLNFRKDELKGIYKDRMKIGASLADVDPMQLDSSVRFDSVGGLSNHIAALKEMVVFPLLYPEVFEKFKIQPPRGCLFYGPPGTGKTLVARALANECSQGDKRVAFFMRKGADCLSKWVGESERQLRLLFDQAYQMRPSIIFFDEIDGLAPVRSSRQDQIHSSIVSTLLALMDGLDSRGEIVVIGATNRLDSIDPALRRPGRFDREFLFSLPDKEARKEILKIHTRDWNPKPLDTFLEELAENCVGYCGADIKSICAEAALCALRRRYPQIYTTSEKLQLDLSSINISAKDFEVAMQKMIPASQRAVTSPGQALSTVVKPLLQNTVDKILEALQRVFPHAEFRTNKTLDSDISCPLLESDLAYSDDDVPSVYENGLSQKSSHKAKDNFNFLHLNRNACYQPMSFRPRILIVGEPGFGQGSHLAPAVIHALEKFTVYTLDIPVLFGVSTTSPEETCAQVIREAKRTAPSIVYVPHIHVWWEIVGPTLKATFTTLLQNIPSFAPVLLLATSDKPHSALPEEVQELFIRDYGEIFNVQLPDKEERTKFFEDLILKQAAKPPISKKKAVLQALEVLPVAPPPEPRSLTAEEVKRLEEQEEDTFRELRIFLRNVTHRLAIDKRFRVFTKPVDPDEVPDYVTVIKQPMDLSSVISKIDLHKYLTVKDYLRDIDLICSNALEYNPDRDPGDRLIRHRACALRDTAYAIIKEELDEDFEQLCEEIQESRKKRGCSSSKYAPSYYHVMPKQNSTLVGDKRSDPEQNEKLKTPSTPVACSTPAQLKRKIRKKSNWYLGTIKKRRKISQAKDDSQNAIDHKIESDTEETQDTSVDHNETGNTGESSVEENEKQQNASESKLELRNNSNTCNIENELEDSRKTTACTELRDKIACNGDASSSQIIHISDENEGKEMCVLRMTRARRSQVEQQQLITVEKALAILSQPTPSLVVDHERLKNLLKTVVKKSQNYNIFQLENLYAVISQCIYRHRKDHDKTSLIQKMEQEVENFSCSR
UniProt O95352: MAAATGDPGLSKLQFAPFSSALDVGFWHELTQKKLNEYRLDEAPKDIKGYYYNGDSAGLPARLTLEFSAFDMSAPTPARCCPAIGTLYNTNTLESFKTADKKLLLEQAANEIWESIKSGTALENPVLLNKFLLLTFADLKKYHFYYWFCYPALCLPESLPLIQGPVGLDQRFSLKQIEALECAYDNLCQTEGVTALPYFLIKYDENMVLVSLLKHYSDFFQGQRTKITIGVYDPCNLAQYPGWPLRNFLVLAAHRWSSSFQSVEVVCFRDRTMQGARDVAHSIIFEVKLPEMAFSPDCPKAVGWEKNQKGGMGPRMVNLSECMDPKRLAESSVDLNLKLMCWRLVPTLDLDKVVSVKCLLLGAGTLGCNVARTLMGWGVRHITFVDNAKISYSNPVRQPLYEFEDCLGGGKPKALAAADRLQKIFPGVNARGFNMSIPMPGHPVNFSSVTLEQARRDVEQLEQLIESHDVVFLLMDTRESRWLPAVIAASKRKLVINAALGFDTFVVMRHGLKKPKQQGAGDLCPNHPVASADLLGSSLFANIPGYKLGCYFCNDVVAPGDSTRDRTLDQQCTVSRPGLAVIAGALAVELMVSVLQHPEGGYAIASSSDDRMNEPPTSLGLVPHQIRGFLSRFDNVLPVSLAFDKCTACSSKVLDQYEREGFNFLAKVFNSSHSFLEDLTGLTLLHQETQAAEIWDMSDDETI
UniProt Q9BZE9, whole entry, looked up: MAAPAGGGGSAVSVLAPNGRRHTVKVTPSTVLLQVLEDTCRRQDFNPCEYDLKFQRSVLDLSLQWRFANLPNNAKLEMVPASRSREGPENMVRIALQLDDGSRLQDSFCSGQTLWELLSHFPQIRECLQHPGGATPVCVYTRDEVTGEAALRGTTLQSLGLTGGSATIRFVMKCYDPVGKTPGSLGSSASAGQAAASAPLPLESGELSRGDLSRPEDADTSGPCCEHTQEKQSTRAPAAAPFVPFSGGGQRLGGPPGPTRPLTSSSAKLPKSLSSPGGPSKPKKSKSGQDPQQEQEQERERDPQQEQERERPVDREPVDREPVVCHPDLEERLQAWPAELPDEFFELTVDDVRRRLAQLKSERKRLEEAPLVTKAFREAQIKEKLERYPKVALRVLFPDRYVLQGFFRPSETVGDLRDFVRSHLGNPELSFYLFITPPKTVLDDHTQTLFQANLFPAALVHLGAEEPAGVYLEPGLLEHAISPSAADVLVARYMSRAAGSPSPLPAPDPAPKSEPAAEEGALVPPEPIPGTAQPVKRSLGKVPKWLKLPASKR
UniProt Q8N3C0, whole entry, looked up: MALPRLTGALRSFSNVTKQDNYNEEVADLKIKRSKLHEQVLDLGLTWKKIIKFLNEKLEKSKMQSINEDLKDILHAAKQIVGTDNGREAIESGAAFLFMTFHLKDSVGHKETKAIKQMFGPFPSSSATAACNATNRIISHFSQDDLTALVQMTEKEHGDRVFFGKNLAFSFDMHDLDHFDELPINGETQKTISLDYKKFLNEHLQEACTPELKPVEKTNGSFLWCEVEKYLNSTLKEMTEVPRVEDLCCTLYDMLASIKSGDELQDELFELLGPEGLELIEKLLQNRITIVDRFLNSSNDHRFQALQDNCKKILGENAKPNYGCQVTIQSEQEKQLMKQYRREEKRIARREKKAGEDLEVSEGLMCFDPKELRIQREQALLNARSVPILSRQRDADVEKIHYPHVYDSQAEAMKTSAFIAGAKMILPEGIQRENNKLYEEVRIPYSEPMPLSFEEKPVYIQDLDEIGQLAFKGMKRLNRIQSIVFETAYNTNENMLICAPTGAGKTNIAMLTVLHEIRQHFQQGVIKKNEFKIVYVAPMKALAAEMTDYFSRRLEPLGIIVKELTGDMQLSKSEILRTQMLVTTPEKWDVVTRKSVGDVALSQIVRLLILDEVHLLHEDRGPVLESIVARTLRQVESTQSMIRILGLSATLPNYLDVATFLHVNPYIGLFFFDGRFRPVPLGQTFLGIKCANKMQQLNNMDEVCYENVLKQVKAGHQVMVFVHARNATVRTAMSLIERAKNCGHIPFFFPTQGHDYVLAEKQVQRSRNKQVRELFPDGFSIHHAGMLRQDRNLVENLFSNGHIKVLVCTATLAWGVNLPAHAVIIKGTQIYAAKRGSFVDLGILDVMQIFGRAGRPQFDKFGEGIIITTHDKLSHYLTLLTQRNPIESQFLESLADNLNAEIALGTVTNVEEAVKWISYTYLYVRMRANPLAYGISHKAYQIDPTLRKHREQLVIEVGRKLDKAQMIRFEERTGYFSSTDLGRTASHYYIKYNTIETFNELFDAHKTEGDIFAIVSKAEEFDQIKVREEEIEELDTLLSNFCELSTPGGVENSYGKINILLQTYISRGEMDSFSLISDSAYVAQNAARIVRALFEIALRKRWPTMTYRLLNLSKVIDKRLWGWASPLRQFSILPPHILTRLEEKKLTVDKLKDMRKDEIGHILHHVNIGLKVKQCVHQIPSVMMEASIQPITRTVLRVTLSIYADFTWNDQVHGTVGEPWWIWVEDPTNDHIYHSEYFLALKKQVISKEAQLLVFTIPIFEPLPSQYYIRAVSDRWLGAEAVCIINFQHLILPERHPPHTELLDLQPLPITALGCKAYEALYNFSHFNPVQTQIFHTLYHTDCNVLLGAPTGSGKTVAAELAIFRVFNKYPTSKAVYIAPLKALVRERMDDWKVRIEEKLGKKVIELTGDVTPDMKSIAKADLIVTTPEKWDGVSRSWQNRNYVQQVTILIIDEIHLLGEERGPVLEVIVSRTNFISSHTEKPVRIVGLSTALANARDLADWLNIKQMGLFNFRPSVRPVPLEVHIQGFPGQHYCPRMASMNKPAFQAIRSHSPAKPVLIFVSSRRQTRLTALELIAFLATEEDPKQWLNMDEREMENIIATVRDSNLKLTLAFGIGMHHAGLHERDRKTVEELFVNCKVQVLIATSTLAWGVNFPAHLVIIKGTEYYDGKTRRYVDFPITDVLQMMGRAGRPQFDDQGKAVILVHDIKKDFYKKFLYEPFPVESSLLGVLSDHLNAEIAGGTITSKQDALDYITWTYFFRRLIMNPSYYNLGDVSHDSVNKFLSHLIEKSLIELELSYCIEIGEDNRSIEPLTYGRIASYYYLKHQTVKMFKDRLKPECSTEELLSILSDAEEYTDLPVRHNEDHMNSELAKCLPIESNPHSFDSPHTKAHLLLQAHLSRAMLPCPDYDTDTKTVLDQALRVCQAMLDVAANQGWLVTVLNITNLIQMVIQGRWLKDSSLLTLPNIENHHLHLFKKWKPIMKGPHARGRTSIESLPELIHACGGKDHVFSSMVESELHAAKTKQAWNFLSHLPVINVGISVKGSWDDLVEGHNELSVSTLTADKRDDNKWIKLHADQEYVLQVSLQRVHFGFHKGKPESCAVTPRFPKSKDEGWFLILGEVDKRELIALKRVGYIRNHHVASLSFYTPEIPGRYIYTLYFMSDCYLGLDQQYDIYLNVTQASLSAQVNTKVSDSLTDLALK
UniProt Q9Y4P1: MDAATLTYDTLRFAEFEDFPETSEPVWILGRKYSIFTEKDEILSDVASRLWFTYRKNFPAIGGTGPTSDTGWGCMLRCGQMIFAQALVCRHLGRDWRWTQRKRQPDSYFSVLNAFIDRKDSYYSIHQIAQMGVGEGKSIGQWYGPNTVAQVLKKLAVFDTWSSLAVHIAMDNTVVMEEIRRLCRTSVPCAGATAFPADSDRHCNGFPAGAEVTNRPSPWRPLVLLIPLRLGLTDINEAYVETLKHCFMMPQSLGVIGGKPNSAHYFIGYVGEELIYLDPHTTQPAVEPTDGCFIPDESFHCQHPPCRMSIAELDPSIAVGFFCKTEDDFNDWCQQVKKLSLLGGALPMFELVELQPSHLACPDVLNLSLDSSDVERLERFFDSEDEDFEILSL
UniProt P31939: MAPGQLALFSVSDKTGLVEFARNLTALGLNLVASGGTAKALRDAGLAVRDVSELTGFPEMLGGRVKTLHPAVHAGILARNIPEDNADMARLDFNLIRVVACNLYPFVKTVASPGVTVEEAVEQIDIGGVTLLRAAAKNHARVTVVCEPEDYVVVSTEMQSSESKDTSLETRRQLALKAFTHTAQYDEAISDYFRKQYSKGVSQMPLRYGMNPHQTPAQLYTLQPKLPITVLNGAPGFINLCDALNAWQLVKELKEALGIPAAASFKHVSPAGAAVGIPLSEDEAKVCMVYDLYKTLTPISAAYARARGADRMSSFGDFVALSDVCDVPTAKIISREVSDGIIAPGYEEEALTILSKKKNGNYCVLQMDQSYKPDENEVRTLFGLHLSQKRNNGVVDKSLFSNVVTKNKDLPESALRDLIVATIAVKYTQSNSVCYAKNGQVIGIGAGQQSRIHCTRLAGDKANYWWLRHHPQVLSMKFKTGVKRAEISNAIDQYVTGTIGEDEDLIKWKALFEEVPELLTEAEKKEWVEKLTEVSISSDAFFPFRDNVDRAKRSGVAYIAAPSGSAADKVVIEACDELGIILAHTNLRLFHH
UniProt O00244: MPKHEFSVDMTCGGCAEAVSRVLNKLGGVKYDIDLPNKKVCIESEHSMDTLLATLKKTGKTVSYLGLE
UniProt P38606, whole entry, looked up: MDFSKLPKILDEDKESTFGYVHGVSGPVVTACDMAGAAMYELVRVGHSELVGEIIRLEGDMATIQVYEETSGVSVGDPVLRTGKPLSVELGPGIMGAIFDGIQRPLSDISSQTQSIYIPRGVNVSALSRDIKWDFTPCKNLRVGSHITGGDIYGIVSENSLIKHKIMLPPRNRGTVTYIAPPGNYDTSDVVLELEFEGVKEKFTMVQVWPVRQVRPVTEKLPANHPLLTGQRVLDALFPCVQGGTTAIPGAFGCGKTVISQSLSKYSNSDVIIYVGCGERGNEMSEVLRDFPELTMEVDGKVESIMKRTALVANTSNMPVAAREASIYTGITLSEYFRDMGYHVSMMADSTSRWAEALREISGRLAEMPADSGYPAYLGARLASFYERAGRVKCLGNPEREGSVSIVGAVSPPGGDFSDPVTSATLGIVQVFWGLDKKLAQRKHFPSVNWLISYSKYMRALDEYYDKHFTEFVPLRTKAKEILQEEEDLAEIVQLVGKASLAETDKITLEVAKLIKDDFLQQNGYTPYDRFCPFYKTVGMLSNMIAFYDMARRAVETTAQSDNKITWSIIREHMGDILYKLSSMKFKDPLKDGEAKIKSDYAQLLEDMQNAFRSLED

| Target | probe-labelled cysteine peptide fold change (10 µM) | probe-labelled cysteine peptide fold change (50 µM) |
| --- | --- | --- |
| ATP6V0A2_Q9Y487_323+330_CLIAEVWCPEADLQDLRR (UniProt Q9Y487) | -0.1 | -0.102 |
| ATF7_P17544_61_NCEEVGLFNELASSFEHEFK (UniProt P17544) | 0.208 | -0.0863 |
| ATRIP_Q8WXE1_585_FQCVFQVLPK (UniProt Q8WXE1) | 0.0141 | -0.0426 |
| ATAD1_Q8NBU5_359_DAAFQNVLTHVCLD (UniProt Q8NBU5) | -0.0942 | 0.00918 |
| ATL2_Q8NHH9_441_MGGDEFCR (UniProt Q8NHH9) | 0.0643 | 0.0457 |
| ARPC3_O15145_162_WWTCFVK (UniProt O15145) | -0.265 | -0.122 |
| ATG13_O75143_339_THCAATPSSSEDTETVSNSSEGR (UniProt O75143) | -0.413 | -0.126 |
| ASNS_P08243_43+44_FENVNGYTNCCFGFHR (UniProt P08243) | -0.00447 | 0.0682 |
| ATM_Q13315_1821_CEILQLLK (UniProt Q13315) | -0.00288 | -0.125 |
| ATF7IP2_Q5U623_220_QSDNILCSEDSGFVPVEK (UniProt Q5U623) | -0.0613 | -0.177 |
| ATAD2_Q6PL18_1270_IACNGDASSSQIIHISDENEGK (UniProt Q6PL18) | 0.15 | -0.177 |
| ASMTL_O95671_441_LTACQVATAFNLSR (UniProt O95671) | 0.111 | 0.155 |
| ATP2A2_P16615_447_VGEATETALTCLVEK (UniProt P16615) | 0.0202 | 0.0778 |
| ATP5F1A_P25705_244_KLYCIYVAIGQK (UniProt P25705) | -0.433 | 0.0534 |
| ATP2B1_P20020_463+473_HLDACETMGNATAICSDK (UniProt P20020) | 0.274 | -0.133 |
| ATG7_O95352_235_ITIGVYDPCNLAQYPGWPLR (UniProt O95352) | -0.382 | 0.356 |
| ATP13A1_Q9HD20_711_EALECSLK (UniProt Q9HD20) | 0.114 | 0.226 |
| ATG12_O94817_134_LVLHYCK (UniProt O94817) | 0.159 | 0.17 |
| ATM_Q13315_2473_AVENYINCLLSGEEHDMWVFR (UniProt Q13315) | -0.0257 | -0.0723 |
| ATG7_O95352_358_CLLLGAGTLGCNVAR (UniProt O95352) | -0.0759 | -0.0837 |
| ATP6V0A2_Q9Y487_330_CLIAEVWCPEADLQDLRR (UniProt Q9Y487) | -0.0765 | 0.0285 |

| Target | probe-labelled cysteine peptide fold change (10 µM) | probe-labelled cysteine peptide fold change (50 µM) |
| --- | --- | --- |
| ATAD1_Q8NBU5_229_AQFMSLWDGLDTDHSCQVIVMGATNRPQDLDSAIMR (UniProt Q8NBU5) | -0.043 | -0.0993 |
| ATP13A1_Q9HD20_723_FVGFIVVSCPLK (UniProt Q9HD20) | -0.194 | -0.0572 |
| ARRB2_P32121_141_ACGVDFEIR (UniProt P32121) | -0.0146 | -0.0247 |
| ASXL2_Q76L83_1225_ETLSTSDCLASK (UniProt Q76L83) | -0.0078 | -0.1 |
| ASH2L_Q9UBL3_362_YILAEPDPHAPDPEKLELDCWAGKPIPGDLYR (UniProt Q9UBL3) | -0.107 | -0.123 |
| ATM_Q13315_2092_DWCPELEELHYQAAWR (UniProt Q13315) | 0.0465 | 0.0307 |
| ATP11B_Q9Y2G3_422_ECSINGMK (UniProt Q9Y2G3) | -0.0547 | -0.122 |
| ATG3_Q9NT62_264_TVTIENHPHLPPPPMCSVHPCR (UniProt Q9NT62) | 0.0537 | 0.153 |
| ATM_Q13315_12_SLVLNDLLICCR (UniProt Q13315) | -0.475 | -0.182 |
| ASPSCR1_Q9BZE9_127+138_ECLQHPGGATPVCVYTR (UniProt Q9BZE9) | 0.0385 | 0.00452 |
| ASF1B_Q9NVP2_201_GLGLPGCIPGLLPENSMDCI (UniProt Q9NVP2) | 0.064 | 0.0786 |
| ATP2A2_P16615_875_VSFYQLSHFLQCK (UniProt P16615) | 0.0301 | 0.00168 |
| ATG5_Q9H1Y0_115_DLLHCPSK (UniProt Q9H1Y0) | -0.0506 |  |
| ASCC3_Q8N3C0_1874_CLPIESNPHSFDSPHTK (UniProt Q8N3C0) | 0.0413 | -0.113 |
| ATP13A1_Q9HD20_410_ATTGLKPVDSGCVAYVLR (UniProt Q9HD20) | 0.0177 | 0.055 |
| ARPC1B_O15143_342_CSQFCTTGMDGGMSIWDVK (UniProt O15143) | 0.0489 | -0.0336 |
| ARPC4_P59998_21_ATLQAALCLENFSSQVVER (UniProt P59998) | 0.0687 | 0.17 |
| ATAD2B_Q9ULI0_100_QPDSVCK (UniProt Q9ULI0) | 0.243 | 0.281 |
| ASAP2_O43150_354_LNLLTCQVK (UniProt O43150) | -0.017 | 0.321 |
| ATG4B_Q9Y4P1_323_MSIAELDPSIAVGFFCK (UniProt Q9Y4P1) | -0.107 | 0.00193 |
| ASCC3_Q8N3C0_2101_GKPESCAVTPR (UniProt Q8N3C0) | 0.0662 | 0.0471 |

| Target | probe-labelled cysteine peptide fold change (10 µM) | probe-labelled cysteine peptide fold change (50 µM) |
| --- | --- | --- |
| ARPC1B_O15143_70_IVTCGTDR (UniProt O15143) | -0.0524 | 0.0793 |
| ATG4B_Q9Y4P1_333_TEDDFNDWCQQVK (UniProt Q9Y4P1) | -0.223 | -0.125 |
| ARRB1_P49407_251_CPVAMEEADDTVAPSSTFCK (UniProt P49407) | 0.123 | 0.213 |
| ATP2B1_P20020_473_HLDACETMGNATAICSDK (UniProt P20020) | 0.0473 | -0.103 |
| ATG7_O95352_358+368_CLLLGAGTLGCNVAR (UniProt O95352) | -0.0153 | 0.1 |
| ATIC_P31939_101_VVACNLYPFVK (UniProt P31939) | -0.0132 | 0.0726 |
| ARPC1B_O15143_26_TQIAICPNNHEVHIYEK (UniProt O15143) | 0.062 | 0.00851 |
| ATF7IP_Q6VMQ6_1228_ALPLPMACTLTQFVSGSK (UniProt Q6VMQ6) | 0.192 | 0.0855 |
| ASCC3_Q8N3C0_1315_HPPHTELLDLQPLPITALGCK (UniProt Q8N3C0) | 0.332 | 0.238 |
| ATP6V0A1_Q93050_58_RCEEMDR (UniProt Q93050) | 0.0489 | 0.118 |
| ATAD2_Q6PL18_1388_MEQEVENFSCSR (UniProt Q6PL18) | -0.0689 | -0.0859 |
| ASPSCR1_Q9BZE9_325_ERPVDREPVDREPVVCHPDLEER (UniProt Q9BZE9) | -0.175 | -0.252 |
| ASPSCR1_Q9BZE9_109_LQDSFCSGQTLWELLSHFPQIR (UniProt Q9BZE9) | 0.0218 | -0.00341 |
| ATOX1_O00244_41_KVCIESEHSMDTLLATLKK (UniProt O00244) | 0.0597 | 0.0181 |
| ATP6V1B2_P21281_425_KDHADVSNQLYACYAIGK (UniProt P21281) | -0.13 | 0.0617 |
| ARRB1_P49407_125_KLGEHAYPFTFEIPPNLPCSVTLQPGPEDTGK (UniProt P49407) | -0.00444 | -0.04 |
| ATP6V0A2_Q9Y487_244_ICDCYHCHVYPYPNTAEER (UniProt Q9Y487) | 0.131 | 0.198 |
| ATRX_P46100_1575_LKPHQVDGVQFMWDCCCESVKK (UniProt P46100) | -0.22 | -0.111 |
| ATP6V1A_P38606_254_VLDALFPCVQGGTTAIPGAFGCGK (UniProt P38606) | 0.238 | 0.203 |
| ATP2A2_P16615_377_MFILDRVEGDTCSLNEFTITGSTYAPIGEVHK (UniProt P16615) | 0.24 | 0.0756 |
| ARV1_Q9H2C2_37_CIECNQEAK (UniProt Q9H2C2) | 0.0273 | 0.199 |

| Target | probe-labelled cysteine peptide fold change (10 µM) | probe-labelled cysteine peptide fold change (50 µM) |
| --- | --- | --- |
| ATOX1_O00244_41_KVCIESEHSMDTLLATLK (UniProt O00244) | -0.0277 | -0.224 |
| ASCC3_Q8N3C0_366_KAGEDLEVSEGLMCFDPK (UniProt Q8N3C0) | -0.033 | -0.248 |
| ARRB2_P32121_126_KLGQHAHPFFFTIPQNLPCSVTLQPGPEDTGK (UniProt P32121) | -0.12 | -0.0524 |
| ATP2A2_P16615_560_CLALATHDNPLRR (UniProt P16615) | -0.0194 | 0.0413 |
| ATP6V1A_P38606_138_WDFTPCK (UniProt P38606) | -0.198 | -0.819 |
| ATP11B_Q9Y2G3_170_LDGSCHVTTASLDGETNLK (UniProt Q9Y2G3) | -0.0312 | -0.197 |
| ATP11B_Q9Y2G3_741_SDSECAEQLR (UniProt Q9Y2G3) | 0.0234 | 0.0768 |
| ASMTL_O95671_305_GLLTACK (UniProt O95671) | -0.0323 | -0.0143 |
| ATIC_P31939_363_KNGNYCVLQMDQSYKPDENEVR (UniProt P31939) | 0.0888 | -0.0425 |
| ATAD2_Q6PL18_463_GCLFYGPPGTGK (UniProt Q6PL18) | -0.0098 | 0.0526 |
| ASS1_P00966_97_YLLGTSLARPCIAR (UniProt P00966) | 0.00504 | -0.131 |
| ASNA1_O43681_53_TTCSCSLAVQLSK (UniProt O43681) | -0.0478 | 0.0315 |
| ATP2A3_Q93084_498_SMSVYCTPTRPHPTGQGSK (UniProt Q93084) | 0.137 | -0.133 |
| ATP5F1C_P36542_103_GLCGAIHSSIAK (UniProt P36542) | 0.234 | -0.228 |
| ATIC_P31939_434_YTQSNSVCYAK (UniProt P31939) | 0.0597 | 0.138 |
| ATP5F1A_P25705_244_LYCIYVAIGQK (UniProt P25705) | -0.282 | 0.146 |
| ATL3_Q6DD88_262_NHIHSCFSDVTCFLLPHPGLQVATSPDFDGK (UniProt Q6DD88) | 0.0291 | 0.0346 |
| ATP6V0D1_P61421_244_LFPHCGR (UniProt P61421) | 0.0933 | 0.0427 |
| ATL3_Q6DD88_256_NHIHSCFSDVTCFLLPHPGLQVATSPDFDGK (UniProt Q6DD88) | 0.0903 | 0.00582 |
| ASPHD2_Q6ICH7_200_NFQTILCEFETLYK (UniProt Q6ICH7) | -0.104 | -0.222 |

Reference: the supplement of paper PMC12067093, “Discovery and optimisation of a covalent ligand for TRIM25 and its application to targeted protein ubiquitination” (Chemical Science, 2025)
